Reference: patent publication US9493426B2, “Quinazolinone derivatives useful as FGFR kinase modulators” (priority 2013, dated 2016)
Structures were worked out from names or drawings and are uncertain.

Chains of the proteins cited; added tags and fusions are not shown. Residues count along the entry.
UniProt P22607, 23-806 limits assumed: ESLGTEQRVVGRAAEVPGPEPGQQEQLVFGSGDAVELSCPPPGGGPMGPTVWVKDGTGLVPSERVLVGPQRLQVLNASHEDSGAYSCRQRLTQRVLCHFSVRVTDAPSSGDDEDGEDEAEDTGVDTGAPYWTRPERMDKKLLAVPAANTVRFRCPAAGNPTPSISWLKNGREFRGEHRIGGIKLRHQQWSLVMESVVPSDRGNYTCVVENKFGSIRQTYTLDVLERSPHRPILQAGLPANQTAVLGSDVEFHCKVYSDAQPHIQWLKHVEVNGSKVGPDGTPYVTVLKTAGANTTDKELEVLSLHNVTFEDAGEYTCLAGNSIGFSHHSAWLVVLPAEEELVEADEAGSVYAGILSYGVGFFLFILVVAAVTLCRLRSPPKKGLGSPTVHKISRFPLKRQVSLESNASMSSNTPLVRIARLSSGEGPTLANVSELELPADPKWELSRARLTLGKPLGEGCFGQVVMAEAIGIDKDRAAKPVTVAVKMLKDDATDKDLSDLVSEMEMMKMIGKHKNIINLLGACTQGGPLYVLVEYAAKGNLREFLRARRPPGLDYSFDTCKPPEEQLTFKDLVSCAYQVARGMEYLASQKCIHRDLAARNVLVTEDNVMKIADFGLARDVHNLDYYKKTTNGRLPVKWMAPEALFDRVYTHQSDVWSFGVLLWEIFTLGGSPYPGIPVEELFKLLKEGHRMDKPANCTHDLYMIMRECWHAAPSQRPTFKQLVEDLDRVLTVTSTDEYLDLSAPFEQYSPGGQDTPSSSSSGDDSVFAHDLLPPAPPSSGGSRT
UniProt P22455, 22-802 limits assumed: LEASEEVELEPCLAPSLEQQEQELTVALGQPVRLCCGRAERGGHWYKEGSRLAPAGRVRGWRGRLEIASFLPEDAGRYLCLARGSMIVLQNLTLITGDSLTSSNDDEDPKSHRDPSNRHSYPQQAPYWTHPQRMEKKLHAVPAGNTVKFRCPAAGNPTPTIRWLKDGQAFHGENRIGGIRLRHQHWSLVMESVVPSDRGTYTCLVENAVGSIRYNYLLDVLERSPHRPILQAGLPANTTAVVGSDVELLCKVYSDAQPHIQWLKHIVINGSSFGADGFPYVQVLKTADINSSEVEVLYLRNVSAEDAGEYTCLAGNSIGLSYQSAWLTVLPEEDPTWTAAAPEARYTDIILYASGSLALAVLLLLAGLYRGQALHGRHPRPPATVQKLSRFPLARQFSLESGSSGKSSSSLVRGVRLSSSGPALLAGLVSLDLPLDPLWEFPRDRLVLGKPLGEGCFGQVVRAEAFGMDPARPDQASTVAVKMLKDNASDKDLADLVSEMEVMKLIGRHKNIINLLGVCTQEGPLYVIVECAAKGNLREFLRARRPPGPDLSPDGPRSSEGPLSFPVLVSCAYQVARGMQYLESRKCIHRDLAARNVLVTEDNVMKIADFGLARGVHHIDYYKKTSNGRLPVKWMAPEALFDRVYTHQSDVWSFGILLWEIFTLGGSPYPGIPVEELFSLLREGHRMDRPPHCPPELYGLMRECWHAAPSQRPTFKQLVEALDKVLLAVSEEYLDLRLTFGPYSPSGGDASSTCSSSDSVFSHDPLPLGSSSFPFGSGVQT
UniProt P11362, 22-822 limits assumed: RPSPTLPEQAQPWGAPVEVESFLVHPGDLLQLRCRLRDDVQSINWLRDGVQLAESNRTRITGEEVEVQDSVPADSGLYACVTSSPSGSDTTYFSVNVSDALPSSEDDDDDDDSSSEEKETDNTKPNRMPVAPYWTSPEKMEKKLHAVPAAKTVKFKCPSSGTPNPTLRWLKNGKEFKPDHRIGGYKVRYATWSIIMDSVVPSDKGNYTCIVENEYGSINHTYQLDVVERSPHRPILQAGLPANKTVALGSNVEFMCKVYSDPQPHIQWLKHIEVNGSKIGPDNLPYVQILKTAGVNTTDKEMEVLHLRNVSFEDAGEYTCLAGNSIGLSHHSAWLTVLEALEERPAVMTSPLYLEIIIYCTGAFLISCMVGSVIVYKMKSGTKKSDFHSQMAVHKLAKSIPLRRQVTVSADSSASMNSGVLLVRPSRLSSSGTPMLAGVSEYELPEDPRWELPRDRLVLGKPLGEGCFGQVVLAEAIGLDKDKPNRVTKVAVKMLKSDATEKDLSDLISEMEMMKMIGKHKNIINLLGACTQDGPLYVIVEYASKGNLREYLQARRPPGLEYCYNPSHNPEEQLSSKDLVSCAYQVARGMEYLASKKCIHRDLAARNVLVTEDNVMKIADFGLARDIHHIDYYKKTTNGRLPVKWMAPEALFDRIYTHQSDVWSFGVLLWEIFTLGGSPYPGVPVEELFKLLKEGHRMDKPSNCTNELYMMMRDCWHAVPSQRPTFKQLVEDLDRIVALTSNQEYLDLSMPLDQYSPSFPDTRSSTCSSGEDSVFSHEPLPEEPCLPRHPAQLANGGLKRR
UniProt P21802, 22-821 limits assumed: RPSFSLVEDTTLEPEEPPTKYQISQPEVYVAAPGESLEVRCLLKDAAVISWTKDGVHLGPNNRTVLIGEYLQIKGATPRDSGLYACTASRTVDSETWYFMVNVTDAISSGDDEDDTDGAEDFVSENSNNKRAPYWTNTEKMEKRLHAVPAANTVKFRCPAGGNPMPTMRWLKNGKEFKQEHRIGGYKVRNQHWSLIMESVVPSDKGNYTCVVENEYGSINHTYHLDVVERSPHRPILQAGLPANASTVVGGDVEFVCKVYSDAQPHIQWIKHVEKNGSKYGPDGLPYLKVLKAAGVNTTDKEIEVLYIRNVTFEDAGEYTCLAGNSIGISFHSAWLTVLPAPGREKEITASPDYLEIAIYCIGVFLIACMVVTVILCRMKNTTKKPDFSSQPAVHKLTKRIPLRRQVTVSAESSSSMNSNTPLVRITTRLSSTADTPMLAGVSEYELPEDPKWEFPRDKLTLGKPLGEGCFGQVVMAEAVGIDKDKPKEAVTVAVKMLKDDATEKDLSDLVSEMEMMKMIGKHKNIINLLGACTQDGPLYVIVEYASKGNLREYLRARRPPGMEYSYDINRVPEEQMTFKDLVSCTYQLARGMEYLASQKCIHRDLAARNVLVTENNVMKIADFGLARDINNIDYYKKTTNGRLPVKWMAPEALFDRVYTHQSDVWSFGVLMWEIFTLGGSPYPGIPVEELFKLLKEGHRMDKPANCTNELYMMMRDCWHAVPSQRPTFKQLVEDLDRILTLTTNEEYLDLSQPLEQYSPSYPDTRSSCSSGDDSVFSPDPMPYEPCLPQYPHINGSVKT
UniProt P35968, 20-1356 limits assumed: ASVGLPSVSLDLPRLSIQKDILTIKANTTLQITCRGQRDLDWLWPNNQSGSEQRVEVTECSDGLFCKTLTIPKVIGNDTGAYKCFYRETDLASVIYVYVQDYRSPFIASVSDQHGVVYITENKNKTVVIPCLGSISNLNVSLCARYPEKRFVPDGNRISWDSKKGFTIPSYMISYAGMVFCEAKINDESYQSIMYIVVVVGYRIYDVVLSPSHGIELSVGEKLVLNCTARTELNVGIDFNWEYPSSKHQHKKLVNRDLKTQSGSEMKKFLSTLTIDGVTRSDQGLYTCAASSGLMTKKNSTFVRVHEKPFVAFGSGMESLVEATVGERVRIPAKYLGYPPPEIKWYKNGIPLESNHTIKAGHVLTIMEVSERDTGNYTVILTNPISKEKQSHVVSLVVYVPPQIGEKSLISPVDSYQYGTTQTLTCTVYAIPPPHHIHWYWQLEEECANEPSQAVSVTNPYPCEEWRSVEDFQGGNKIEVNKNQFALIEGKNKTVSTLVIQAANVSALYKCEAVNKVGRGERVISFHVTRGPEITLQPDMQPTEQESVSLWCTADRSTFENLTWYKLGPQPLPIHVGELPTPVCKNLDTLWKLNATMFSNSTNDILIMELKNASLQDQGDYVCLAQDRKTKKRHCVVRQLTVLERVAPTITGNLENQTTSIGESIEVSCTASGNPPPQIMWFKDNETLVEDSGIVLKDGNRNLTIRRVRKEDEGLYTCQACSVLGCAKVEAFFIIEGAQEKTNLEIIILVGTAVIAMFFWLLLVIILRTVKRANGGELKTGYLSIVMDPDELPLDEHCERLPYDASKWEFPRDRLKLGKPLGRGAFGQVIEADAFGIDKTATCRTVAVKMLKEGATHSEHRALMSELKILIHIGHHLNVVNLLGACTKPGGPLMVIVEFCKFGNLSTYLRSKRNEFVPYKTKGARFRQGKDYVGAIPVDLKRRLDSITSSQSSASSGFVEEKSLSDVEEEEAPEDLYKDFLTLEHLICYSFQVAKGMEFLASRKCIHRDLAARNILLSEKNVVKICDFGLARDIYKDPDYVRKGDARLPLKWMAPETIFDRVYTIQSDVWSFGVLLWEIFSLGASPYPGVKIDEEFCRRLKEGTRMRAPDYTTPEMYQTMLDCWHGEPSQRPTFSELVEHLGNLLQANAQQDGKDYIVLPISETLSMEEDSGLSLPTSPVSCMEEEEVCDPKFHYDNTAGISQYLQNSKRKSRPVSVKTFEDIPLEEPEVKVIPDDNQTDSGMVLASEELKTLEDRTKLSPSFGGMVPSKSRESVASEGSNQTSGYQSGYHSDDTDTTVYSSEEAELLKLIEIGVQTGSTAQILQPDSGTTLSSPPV

Columns and labels:
Settings in all cases: pKd = -log Kd (M)
FGFR3 = FGFR3 (Homo sapiens, UniProt P22607); assay: Enzyme binding assay (KINOMEscan) FGFR3
FGFR4 = FGFR4 (Homo sapiens, UniProt P22455); assay: Enzyme binding assay (KINOMEscan) FGFR4
FGFR1 = FGFR1 (Homo sapiens, UniProt P11362); assay: Enzyme binding assay (KINOMEscan) FGFR1
FGFR2 = FGFR2 (Homo sapiens, UniProt P21802); assay: Enzyme binding assay (KINOMEscan) FGFR2
VEGFR2 = VEGFR2 (Homo sapiens, UniProt P35968); assay: Enzyme binding assay (KINOMEscan) VEGFR2

COc1cc(OC)cc(N(CCO)c2ccc3ncn(-c4ccncc4)c(=O)c3c2)c1
FGFR3_pKd (FGFR3): 6.6 | FGFR4_pKd (FGFR4): 5.5 | FGFR1_pKd (FGFR1): 6.1 | FGFR2_pKd (FGFR2): 6.7 | VEGFR2_pKd (VEGFR2): <5.5
